Measurements reported in paper doi:10.1101/2022.03.04.482944.
Results are given in words; binding and its absence hold for the method and conditions named.

Sequences of proteins named here, by UniProt entry; tags and fusion partners are left off. Residues count along the entry.
UniProt P27037, residues 20-513: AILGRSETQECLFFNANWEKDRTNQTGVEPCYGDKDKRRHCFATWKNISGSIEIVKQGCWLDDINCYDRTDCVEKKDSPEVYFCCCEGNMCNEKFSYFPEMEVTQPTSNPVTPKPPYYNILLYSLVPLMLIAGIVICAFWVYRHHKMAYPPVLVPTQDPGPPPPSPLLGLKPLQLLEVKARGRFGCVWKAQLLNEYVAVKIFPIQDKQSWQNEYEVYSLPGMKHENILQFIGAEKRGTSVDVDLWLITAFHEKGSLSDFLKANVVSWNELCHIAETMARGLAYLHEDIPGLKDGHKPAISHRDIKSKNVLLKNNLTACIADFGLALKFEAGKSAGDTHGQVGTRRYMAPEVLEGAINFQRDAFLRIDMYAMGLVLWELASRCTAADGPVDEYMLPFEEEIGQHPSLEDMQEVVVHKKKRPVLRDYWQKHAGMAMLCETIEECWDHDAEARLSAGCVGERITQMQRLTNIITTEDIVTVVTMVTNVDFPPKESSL

How the values were obtained:
Experiment in all cases: Ligand Surface Binding Assay
ALK5-Halo (human) = molecular target: T1, ALK5-Halo (human) (UniProt P36897)
T1 sequence: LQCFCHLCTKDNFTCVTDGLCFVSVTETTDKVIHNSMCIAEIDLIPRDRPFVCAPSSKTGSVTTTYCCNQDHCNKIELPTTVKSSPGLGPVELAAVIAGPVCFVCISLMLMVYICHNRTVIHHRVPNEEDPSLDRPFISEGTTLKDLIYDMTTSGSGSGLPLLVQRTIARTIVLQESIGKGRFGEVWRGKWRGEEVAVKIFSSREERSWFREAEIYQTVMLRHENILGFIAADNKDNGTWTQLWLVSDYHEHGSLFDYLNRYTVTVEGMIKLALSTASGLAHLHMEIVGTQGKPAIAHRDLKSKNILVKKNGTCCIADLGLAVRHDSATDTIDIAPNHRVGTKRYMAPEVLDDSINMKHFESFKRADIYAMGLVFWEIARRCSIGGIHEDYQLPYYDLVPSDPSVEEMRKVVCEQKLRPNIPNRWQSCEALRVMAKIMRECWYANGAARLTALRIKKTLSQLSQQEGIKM

ACVR2A-Halo (human) = ACVR2A-Halo (human) (UniProt P27037)
ALK2-Halo (human) = molecular target: T2, ALK2-Halo (human) (UniProt Q04771)
T2 sequence: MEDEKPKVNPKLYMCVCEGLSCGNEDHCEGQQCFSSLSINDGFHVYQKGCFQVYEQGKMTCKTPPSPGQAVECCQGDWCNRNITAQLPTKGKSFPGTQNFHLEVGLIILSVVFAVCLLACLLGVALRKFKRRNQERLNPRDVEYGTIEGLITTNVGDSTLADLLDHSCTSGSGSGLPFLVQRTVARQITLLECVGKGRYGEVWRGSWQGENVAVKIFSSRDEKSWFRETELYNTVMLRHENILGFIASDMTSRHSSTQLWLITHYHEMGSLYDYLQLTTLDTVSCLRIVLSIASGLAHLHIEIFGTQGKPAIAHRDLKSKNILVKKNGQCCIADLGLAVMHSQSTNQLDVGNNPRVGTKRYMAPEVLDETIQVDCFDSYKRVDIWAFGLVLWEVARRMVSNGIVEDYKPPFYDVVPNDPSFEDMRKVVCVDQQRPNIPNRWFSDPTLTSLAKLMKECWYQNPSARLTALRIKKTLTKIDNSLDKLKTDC

binding (ALK5-Halo (human)): no binding (tested: 0.3 nM) | binding (ACVR2A-Halo (human)): no binding (tested: 0.3 nM) | binding (ALK2-Halo (human)): no binding (tested: 0.3 nM)
B1: BMP9-SiR-d12 (ligand, UniProt Q9UK05 320-429)
chain: SAGAGSHCQKTSLRVNFEDIGWDSWIIAPKEYEAYECKGGCFFPLADDVTPTKHAIVQTLVHLKFPTKVGKACCVPTKLSPISVLYKDDMGVPTLKYHYEGMSVAECGCR
modifications: SiR-d12 label (NHS-SiR-d12 ester, 5-fold molar excess)
